# Measured values reported in PubChem BioAssay (NCATS).
# This is one part of the list. Shown are side measurements of this screen, not its main read-out; they come without a call. Compounds called inactive in the main read-out are mostly missing here. The note in brackets gives the kind of curve behind each potency; many fits are weak.
# Assay: S16 Schwann cell PMP22 intronic element beta-lactamase assay (AID 624044)
# Conditions: S16 rat Schwann cells, PMP22 element beta-lactamase FRET, 24 h; measured here: 530 nm viability channel
# In short: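 Beta-lactamase reporter under a PMP22 intronic regulatory element in stable S16 rat Schwann cells; 24 h compound exposure. 460 nm blue signal normalized between DMSO (0%) and potassium clavulanate, with 535 nm FRET tracking viability; curves classed by r2 and response.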
row,Compound,AC50
1,C[C@H]1CC[C@]2(OC1)O[C@@H]1C[C@@H]3[C@@H]4CC[C@H]5C[C@@H](O)CC[C@]5(C)[C@@H]4CC(=O)[C@@]3(C)[C@H]1[C@@H]2C,"10000 nM [falling, partial curve]"
2,CC(C)(C)c1ccc(CN2CCN([C@H](c3ccccc3)c3ccc(Cl)cc3)CC2)cc1,"2820 nM [rising, full curve, poor fit]"
3,CCCCC[C@H](O)/C=C\[C@@H]1[C@H](O)CC(=O)[C@@H]1CCCCCCC(=O)O,"28.2 nM [falling, full curve]"
